# Assay results as given in the supplement of paper PMC8728848.
# Some of the results follow.
# B1: TAL6-6LysM (Trichoderma atroviride) (protein)
# chain: AASKLGVPQPAQRDQVNCQLYAVQPNDNCIDISSKNNITYAQLLSWNPSLSSTCSNLASLNSSSICVSNPKGTFSISSNTVGATDIATTTAPVPSPTLDQTTSRCAKYYQVSDGDDCSHLTAQFAITLKDFIFLNSEVWQNCTNLELGYYYCVEPVGYISTYPGYLPTATTKPFNQTSATSLPYDGDPWARFSSNSSVIPIANGTRVDCYSYVYVKNLTENLFADCWNMASMYEITREELVLWNPSLGNDGSSGSNLSGAEASQVASSIAIPTTAPSSITTNLYTYPCTVAANISYCVALVSSTGALPTNTAPPGPHASGEISNCTAWFAPEAYDTCKSILDIFEMSFANFYKMNPSVGPDCSGLAVGTNYCVSTYPNGEDPNDDWDGDDSIPSISPTGIITPTPTQSGMVSNCNKFYDVHSNDGCSAIASSQHVDLSSLYKWNPAIKTDCSGLQASVYVCIGILTTSMSTTSKLPTTTSKPSTTSKPPTGITTPTPTQSGMVKNCNKFYDVHSGDGCSAIASSQKVNLSSFYLWNPAVKTDCSGLQASVFVCIGTLTTSMSTTTSKLPTTTSKPSTTSKPPTGIITPTPTQNGMVKNCNKFYDVHSGDGCSAIASSQKVNLSSFYLWNPAVKTDCSGLQASVFVCVGTATTTTAAGITTPTPTQSGMVSGCNKFYDVHAGDGCSAIASSQKIALSSLYKWNPAVKTDCSGLQASVYICIGVGNAAAARVTGAAASFLEQKLISEEDLNSAVDHHHHHH
# Tests used:
# Assay in all cases: glycan array binding signal (z-score within array); higher = stronger binding
# Conditions in all cases: glycan notation: IUPAC condensed, linker removed
# [1] = molecular target: Gal(b1-4)GlcNAc(b1-3)Gal(b1-4)GlcNAc(b1-2)[Gal(b1-4)GlcNAc(b1-3)Gal(b1-4)GlcNAc(b1-6)]Man(a1-6)[Gal(b1-4)GlcNAc(b1-3)Gal(b1-4)GlcNAc(b1-2)Man(a1-3)]Man(b1-4)GlcNAc(b1-4)GlcNAc
# Outline: (§1)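 Arrays were curated from the Consortium for Functional Glycomics database, 3228 in total, and kept only where the protein sequence was available. Binding is expressed as a within-array Z-score. This score was averaged across arrays of the same protein sequence at different concentrations or buffers and across linkers, and negative values can be read as non-binding.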
# [2] = molecular target: Gal(b1-4)GlcNAc(b1-3)Gal(b1-4)GlcNAc(b1-2)[Gal(b1-4)GlcNAc(b1-3)Gal(b1-4)GlcNAc(b1-6)]Man(a1-6)[Gal(b1-4)GlcNAc(b1-3)Gal(b1-4)GlcNAc(b1-2)Man(a1-3)]Man(b1-4)GlcNAc(b1-4)[Fuc(a1-6)]GlcNAc
# Outline: as §1
# [3] = molecular target: Gal(b1-4)GlcNAc(b1-3)Gal(b1-4)GlcNAc(b1-3)Gal(b1-4)GlcNAc
# Outline: as §1
# [4] = molecular target: Gal(b1-4)GlcNAc(b1-3)Gal(b1-4)GlcNAc(b1-3)Gal(b1-4)GlcNAc(b1-2)Man(a1-3)[Gal(b1-4)GlcNAc(b1-3)Gal(b1-4)GlcNAc(b1-3)Gal(b1-4)GlcNAc(b1-2)Man(a1-6)]Man(b1-4)GlcNAc(b1-4)GlcNAc
# Outline: as §1
# [5] = molecular target: Gal(b1-4)GlcNAc(b1-3)Gal(b1-4)GlcNAc(b1-3)Gal(b1-4)GlcNAc(b1-2)Man(a1-3)[Gal(b1-4)GlcNAc(b1-3)Gal(b1-4)GlcNAc(b1-3)Gal(b1-4)GlcNAc(b1-2)Man(a1-6)]Man(b1-4)GlcNAc(b1-4)[Fuc(a1-6)]GlcNAc
# Outline: as §1
# [6] = molecular target: Gal(b1-4)GlcNAc(b1-3)Gal(b1-4)GlcNAc(b1-3)Gal(b1-4)GlcNAc(b1-2)[Gal(b1-4)GlcNAc(b1-3)Gal(b1-4)GlcNAc(b1-3)Gal(b1-4)GlcNAc(b1-6)]Man(a1-6)[Gal(b1-4)GlcNAc(b1-3)Gal(b1-4)GlcNAc(b1-3)Gal(b1-4)GlcNAc(b1-2)Man(a1-3)]Man(b1-4)GlcNAc(b1-4)[Fuc(a1-6)]GlcNAc
# Outline: as §1
# [7] = molecular target: Gal(b1-4)GlcNAc(b1-3)Gal(b1-4)GlcNAc(b1-3)Gal(b1-4)GlcNAc(b1-3)Gal(b1-4)GlcNAc(b1-2)Man(a1-3)[Gal(b1-4)GlcNAc(b1-3)Gal(b1-4)GlcNAc(b1-3)Gal(b1-4)GlcNAc(b1-3)Gal(b1-4)GlcNAc(b1-2)Man(a1-6)]Man(b1-4)GlcNAc(b1-4)GlcNAc
# Outline: as §1
# [8] = molecular target: Gal(b1-4)GlcNAc(b1-3)Gal(b1-4)GlcNAc(b1-3)Gal(b1-4)GlcNAc(b1-3)Gal(b1-4)GlcNAc(b1-2)Man(a1-3)[Gal(b1-4)GlcNAc(b1-3)Gal(b1-4)GlcNAc(b1-3)Gal(b1-4)GlcNAc(b1-3)Gal(b1-4)GlcNAc(b1-2)Man(a1-6)]Man(b1-4)GlcNAc(b1-4)[Fuc(a1-6)]GlcNAc
# Outline: as §1
# [9] = molecular target: Gal(b1-4)GlcNAc(b1-3)Gal(b1-4)GlcNAc(b1-3)Gal(b1-4)GlcNAc(b1-3)Gal(b1-4)GlcNAc(b1-2)[Gal(b1-4)GlcNAc(b1-3)Gal(b1-4)GlcNAc(b1-3)Gal(b1-4)GlcNAc(b1-3)Gal(b1-4)GlcNAc(b1-6)]Man(a1-6)[Gal(b1-4)GlcNAc(b1-3)Gal(b1-4)GlcNAc(b1-3)Gal(b1-4)GlcNAc(b1-3)Gal(b1-4)GlcNAc(b1-2)Man(a1-3)]Man(b1-4)GlcNAc(b1-4)[Fuc(a1-6)]GlcNAc
# Outline: as §1
# [10] = molecular target: Gal(b1-4)GlcNAc(b1-3)Gal(b1-4)GlcNAc(b1-3)Gal(b1-4)GlcNAc(b1-3)Gal(b1-4)GlcNAc(b1-3)Gal(b1-4)GlcNAc(b1-2)Man(a1-3)[Gal(b1-4)GlcNAc(b1-3)Gal(b1-4)GlcNAc(b1-3)Gal(b1-4)GlcNAc(b1-3)Gal(b1-4)GlcNAc(b1-3)Gal(b1-4)GlcNAc(b1-2)Man(a1-6)]Man(b1-4)GlcNAc(b1-4)GlcNAc
# Outline: as §1
# [11] = molecular target: Gal(b1-4)GlcNAc(b1-3)Gal(b1-4)GlcNAc(b1-3)Gal(b1-4)GlcNAc(b1-3)Gal(b1-4)GlcNAc(b1-3)Gal(b1-4)GlcNAc(b1-2)Man(a1-3)[Gal(b1-4)GlcNAc(b1-3)Gal(b1-4)GlcNAc(b1-3)Gal(b1-4)GlcNAc(b1-3)Gal(b1-4)GlcNAc(b1-3)Gal(b1-4)GlcNAc(b1-2)Man(a1-6)]Man(b1-4)GlcNAc(b1-4)[Fuc(a1-6)]GlcNAc
# Outline: as §1
# [12] = molecular target: Gal(b1-4)GlcNAc(b1-3)Gal(b1-4)GlcNAc(b1-3)Gal(b1-4)GlcNAc(b1-3)Gal(b1-4)GlcNAc(b1-3)Gal(b1-4)GlcNAc(b1-2)[Gal(b1-4)GlcNAc(b1-3)Gal(b1-4)GlcNAc(b1-3)Gal(b1-4)GlcNAc(b1-3)Gal(b1-4)GlcNAc(b1-3)Gal(b1-4)GlcNAc(b1-6)]Man(a1-6)[Gal(b1-4)GlcNAc(b1-3)Gal(b1-4)GlcNAc(b1-3)Gal(b1-4)GlcNAc(b1-3)Gal(b1-4)GlcNAc(b1-3)Gal(b1-4)GlcNAc(b1-2)Man(a1-3)]Man(b1-4)GlcNAc(b1-4)[Fuc(a1-6)]GlcNAc
# Outline: as §1
# [13] = molecular target: Gal(b1-4)GlcNAc(b1-3)Gal(b1-4)GlcNAc(b1-3)Gal(b1-4)GlcNAc(b1-3)Gal(b1-4)GlcNAc(b1-3)Gal(b1-4)GlcNAc(b1-3)Gal(b1-4)GlcNAc(b1-2)Man(a1-3)[Gal(b1-4)GlcNAc(b1-3)Gal(b1-4)GlcNAc(b1-3)Gal(b1-4)GlcNAc(b1-3)Gal(b1-4)GlcNAc(b1-3)Gal(b1-4)GlcNAc(b1-3)Gal(b1-4)GlcNAc(b1-2)Man(a1-6)]Man(b1-4)GlcNAc(b1-4)GlcNAc
# Outline: as §1
# [14] = molecular target: Gal(b1-4)GlcNAc(b1-3)Gal(b1-4)GlcNAc(b1-3)GalNAc
# Outline: as §1
# [15] = molecular target: Gal(b1-4)GlcNAc(b1-3)Gal(b1-4)GlcNAc(b1-3)[Gal(b1-4)GlcNAc(b1-3)Gal(b1-4)GlcNAc(b1-6)]GalNAc
# Outline: as §1
# [16] = molecular target: Gal(b1-4)GlcNAc(b1-3)Gal(b1-4)GlcNAc(b1-6)[Gal(b1-3)]GalNAc
# Outline: as §1
# [17] = molecular target: Gal(b1-4)GlcNAc(b1-3)Gal(b1-4)[Fuc(a1-3)]GlcNAc(b1-3)Gal(b1-4)[Fuc(a1-3)]GlcNAc
# Outline: as §1
# [18] = molecular target: Gal(b1-4)GlcNAc(b1-3)GalNAc
# Outline: as §1
# [19] = molecular target: Gal(b1-4)GlcNAc(b1-3)[Fuc(a1-3)GlcNAc(b1-6)]Gal(b1-4)Glc
# Outline: as §1
# [20] = molecular target: Gal(b1-4)GlcNAc(b1-3)[Gal(b1-4)GlcNAc(b1-6)]Gal(b1-4)GlcNAc
# Outline: as §1
# [21] = molecular target: Gal(b1-4)GlcNAc(b1-3)[GlcNAc(b1-6)]Gal(b1-4)GlcNAc
# Outline: as §1
# [22] = molecular target: Gal(b1-4)GlcNAc(b1-6)Gal(b1-4)GlcNAc
# Outline: as §1
# [23] = molecular target: Gal(b1-4)GlcNAc(b1-6)GalNAc
# Outline: as §1
# [24] = molecular target: Gal(b1-4)GlcNAc(b1-6)[Gal(b1-3)]GalNAc
# Outline: as §1
# [25] = molecular target: Gal(b1-4)GlcNAc(b1-6)[Gal(b1-4)GlcNAc(b1-3)]GalNAc
# Outline: as §1
# Gal(b1-4)GlcNAc6P = molecular target: Gal(b1-4)GlcNAc6P
# Outline: as §1
# Gal(b1-6)Gal = molecular target: Gal(b1-6)Gal
# Outline: as §1
# Gal3S(b1-3)GalNAc = molecular target: Gal3S(b1-3)GalNAc
# Outline: as §1
# Gal3S(b1-3)GlcNAc = molecular target: Gal3S(b1-3)GlcNAc
# Outline: as §1
# [26] = molecular target: Gal3S(b1-3)[Fuc(a1-4)]GlcNAc
# Outline: as §1
binder,measurement,setting,value
B1,glycan array binding signal (z-score),[1],0.688
same,glycan array binding signal (z-score),[2],-0.077
same,glycan array binding signal (z-score),[3],0.636
same,glycan array binding signal (z-score),[4],-0.179
same,glycan array binding signal (z-score),[5],-0.033
same,glycan array binding signal (z-score),[6],2.09
same,glycan array binding signal (z-score),[7],1.77
same,glycan array binding signal (z-score),[8],-0.764
same,glycan array binding signal (z-score),[9],0.046
same,glycan array binding signal (z-score),[10],-1.11
same,glycan array binding signal (z-score),[11],0.184
same,glycan array binding signal (z-score),[12],0.688
same,glycan array binding signal (z-score),[13],0.243
same,glycan array binding signal (z-score),[14],1.43
same,glycan array binding signal (z-score),[15],0.101
same,glycan array binding signal (z-score),[16],0.642
same,glycan array binding signal (z-score),[17],0.868
same,glycan array binding signal (z-score),[18],0.941
same,glycan array binding signal (z-score),[19],-0.192
same,glycan array binding signal (z-score),[20],1.15
same,glycan array binding signal (z-score),[21],-1.6
same,glycan array binding signal (z-score),[22],-0.256
same,glycan array binding signal (z-score),[23],2
same,glycan array binding signal (z-score),[24],-0.644
same,glycan array binding signal (z-score),[25],1.09
same,glycan array binding signal (z-score),Gal(b1-4)GlcNAc6P,0.257
same,glycan array binding signal (z-score),Gal(b1-6)Gal,1.48
same,glycan array binding signal (z-score),Gal3S(b1-3)GalNAc,0.856
same,glycan array binding signal (z-score),Gal3S(b1-3)GlcNAc,0.216
same,glycan array binding signal (z-score),[26],0.693

# Two successive entries from above, for reference:
binder,measurement,setting,value
B1,glycan array binding signal (z-score),[8],-0.764
same,glycan array binding signal (z-score),[9],0.046
